Common to all, as to experiment: cryo-EM structure; Pd-CI purified whole from P. denitrificans membranes in DDM (His-Trap, size exclusion), reconstituted into MSP2N2 phospholipid nanodiscs with ubiquinone-10; 2.3 Å consensus map, 2.5 Å focussed map of ND4-ND5; both purified
Experiment [1] deals with T1, Pd-ND3 (Nqo7), core subunit of P. denitrificans complex I (Paracoccus denitrificans) (UniProt P29919).
T1 sequence (chain, formyl-Met at the N-terminus (modelled from additional density)): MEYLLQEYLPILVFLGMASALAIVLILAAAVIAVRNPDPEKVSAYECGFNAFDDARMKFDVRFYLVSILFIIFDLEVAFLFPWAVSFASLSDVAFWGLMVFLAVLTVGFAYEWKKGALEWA

The chains behind the UniProt entries cited, without tags or fusion partners. Where a name states a change or a piece, a line headed by the entry shows the natural chain unless it says otherwise.
UniProt A1B5L6: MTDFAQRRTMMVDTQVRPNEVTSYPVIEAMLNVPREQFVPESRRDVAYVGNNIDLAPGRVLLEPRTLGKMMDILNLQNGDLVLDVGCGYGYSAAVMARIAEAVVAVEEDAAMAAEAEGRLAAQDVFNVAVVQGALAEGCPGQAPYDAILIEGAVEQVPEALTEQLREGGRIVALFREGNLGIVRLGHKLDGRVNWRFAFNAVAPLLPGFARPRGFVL

For experiment [2], the target named is T2, Pd-NDUFS3 (Nqo5), core subunit of P. denitrificans complex I, His6-tagged (Paracoccus denitrificans) (UniProt P29917).
T2 sequence: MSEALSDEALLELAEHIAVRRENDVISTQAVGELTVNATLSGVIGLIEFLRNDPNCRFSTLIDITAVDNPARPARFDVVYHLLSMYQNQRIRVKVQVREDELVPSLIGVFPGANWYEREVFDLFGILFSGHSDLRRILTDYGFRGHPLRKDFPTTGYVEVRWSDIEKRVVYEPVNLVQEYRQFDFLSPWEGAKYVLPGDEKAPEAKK

Experiment [3] concerns the target T3, Pd-NDUFS2 (Nqo4), core subunit of P. denitrificans complex I (Paracoccus denitrificans) (UniProt P29916).
T3 sequence (chain, dimethyl-arginine at position 65): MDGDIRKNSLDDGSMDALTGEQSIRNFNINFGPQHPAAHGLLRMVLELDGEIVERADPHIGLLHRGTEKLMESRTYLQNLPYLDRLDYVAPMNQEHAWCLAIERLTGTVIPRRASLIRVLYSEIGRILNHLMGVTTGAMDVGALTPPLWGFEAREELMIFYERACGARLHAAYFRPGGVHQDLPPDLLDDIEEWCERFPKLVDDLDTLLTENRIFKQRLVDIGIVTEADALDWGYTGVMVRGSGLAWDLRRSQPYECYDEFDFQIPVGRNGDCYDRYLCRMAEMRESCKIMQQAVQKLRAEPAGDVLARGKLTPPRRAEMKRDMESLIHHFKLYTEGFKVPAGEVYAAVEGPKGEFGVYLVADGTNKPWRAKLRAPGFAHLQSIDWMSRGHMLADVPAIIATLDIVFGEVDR

In experiment [4] the target is T4, Pd-NDUFV1 (Nqo1), core subunit of P. denitrificans complex I (Paracoccus denitrificans) (UniProt P29913).
T4 sequence: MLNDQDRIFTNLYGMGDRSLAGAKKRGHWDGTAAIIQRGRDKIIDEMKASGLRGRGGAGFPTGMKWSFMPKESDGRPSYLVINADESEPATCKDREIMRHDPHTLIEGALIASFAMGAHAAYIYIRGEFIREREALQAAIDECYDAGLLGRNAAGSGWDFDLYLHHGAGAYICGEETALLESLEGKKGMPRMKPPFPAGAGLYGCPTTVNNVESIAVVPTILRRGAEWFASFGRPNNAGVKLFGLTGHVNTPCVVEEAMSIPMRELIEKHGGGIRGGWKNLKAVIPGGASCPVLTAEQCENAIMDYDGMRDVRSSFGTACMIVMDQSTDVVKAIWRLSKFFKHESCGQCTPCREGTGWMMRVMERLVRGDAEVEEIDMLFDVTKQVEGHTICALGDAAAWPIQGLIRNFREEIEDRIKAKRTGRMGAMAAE

In experiment [5] the target is T5, Pd-NDUFV2 (Nqo2), core subunit of P. denitrificans complex I (Paracoccus denitrificans) (UniProt P29914).
T5 sequence: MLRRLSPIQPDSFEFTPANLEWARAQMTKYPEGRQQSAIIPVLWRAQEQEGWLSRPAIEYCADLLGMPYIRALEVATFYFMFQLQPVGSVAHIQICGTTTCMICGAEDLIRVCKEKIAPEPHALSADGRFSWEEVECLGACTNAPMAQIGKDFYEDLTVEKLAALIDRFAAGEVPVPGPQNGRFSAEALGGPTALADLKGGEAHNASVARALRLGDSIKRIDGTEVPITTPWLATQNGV

Experiment [6] concerns the target T6, Pd-NDUFS1 (Nqo3), core subunit of P. denitrificans complex I (Paracoccus denitrificans) (UniProt P29915).
T6 sequence: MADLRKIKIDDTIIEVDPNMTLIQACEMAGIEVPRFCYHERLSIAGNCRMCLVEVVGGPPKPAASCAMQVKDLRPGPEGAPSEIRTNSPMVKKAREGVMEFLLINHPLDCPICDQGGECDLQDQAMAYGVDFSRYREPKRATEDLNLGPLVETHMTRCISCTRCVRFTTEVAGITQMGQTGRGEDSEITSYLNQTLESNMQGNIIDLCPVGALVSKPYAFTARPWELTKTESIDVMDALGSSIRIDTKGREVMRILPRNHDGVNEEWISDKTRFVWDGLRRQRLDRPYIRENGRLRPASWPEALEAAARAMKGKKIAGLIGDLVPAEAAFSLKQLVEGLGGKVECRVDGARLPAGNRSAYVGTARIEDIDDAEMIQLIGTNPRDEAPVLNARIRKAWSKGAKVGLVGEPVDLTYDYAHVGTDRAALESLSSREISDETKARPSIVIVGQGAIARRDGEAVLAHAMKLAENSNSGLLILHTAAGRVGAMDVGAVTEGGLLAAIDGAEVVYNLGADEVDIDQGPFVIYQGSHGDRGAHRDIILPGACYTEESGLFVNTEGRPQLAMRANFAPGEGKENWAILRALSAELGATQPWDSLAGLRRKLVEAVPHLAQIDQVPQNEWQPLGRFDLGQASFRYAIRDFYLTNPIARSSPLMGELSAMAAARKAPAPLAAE

These are yes or no findings as the source states them, for the method shown. Binding calls can cover weak binding; strength is not graded here. For some assays here: Sequences can lack the tags named with a protein.

Turning to “CI-PIMT, protein L-isoaspartyl-O-methyltransferase subunit of P. denitrificans complex I (from UniProt A1B5L6)”, the binding entry in experiment [1], in experiment [2] and in experiment [3] was “binds” in each case.

On to “Pd-NDUFS4, supernumerary subunit of P. denitrificans complex I (Paracoccus denitrificans)”, for which the binding entry in experiment [2], in experiment [4], in experiment [5] and in experiment [6] was “binds” throughout.

As to “Pd-NDUFS6, supernumerary subunit of P. denitrificans complex I (Paracoccus denitrificans)”, the binding result in experiment [6] is listed as “binds”.
